Assay results reported in the supplement of paper PMC10849652.
The other results are listed elsewhere or left out. Residues, ends and D or L forms follow the SMILES beside them. *: point of attachment. Cbz = O=C(OCc1ccccc1)*

Chains of the proteins cited; added tags and fusions are not shown. Lines headed by an entry give the natural chain unless they say otherwise; changes in a name come on top.
UniProt Q12904: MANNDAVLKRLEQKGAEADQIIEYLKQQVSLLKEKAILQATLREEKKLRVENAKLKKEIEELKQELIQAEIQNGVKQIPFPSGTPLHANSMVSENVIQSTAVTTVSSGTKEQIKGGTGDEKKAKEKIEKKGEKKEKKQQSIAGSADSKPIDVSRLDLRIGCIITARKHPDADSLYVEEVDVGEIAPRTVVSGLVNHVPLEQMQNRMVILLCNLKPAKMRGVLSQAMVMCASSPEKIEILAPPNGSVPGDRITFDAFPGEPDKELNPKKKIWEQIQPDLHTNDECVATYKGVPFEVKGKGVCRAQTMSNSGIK
UniProt Q8WYP5: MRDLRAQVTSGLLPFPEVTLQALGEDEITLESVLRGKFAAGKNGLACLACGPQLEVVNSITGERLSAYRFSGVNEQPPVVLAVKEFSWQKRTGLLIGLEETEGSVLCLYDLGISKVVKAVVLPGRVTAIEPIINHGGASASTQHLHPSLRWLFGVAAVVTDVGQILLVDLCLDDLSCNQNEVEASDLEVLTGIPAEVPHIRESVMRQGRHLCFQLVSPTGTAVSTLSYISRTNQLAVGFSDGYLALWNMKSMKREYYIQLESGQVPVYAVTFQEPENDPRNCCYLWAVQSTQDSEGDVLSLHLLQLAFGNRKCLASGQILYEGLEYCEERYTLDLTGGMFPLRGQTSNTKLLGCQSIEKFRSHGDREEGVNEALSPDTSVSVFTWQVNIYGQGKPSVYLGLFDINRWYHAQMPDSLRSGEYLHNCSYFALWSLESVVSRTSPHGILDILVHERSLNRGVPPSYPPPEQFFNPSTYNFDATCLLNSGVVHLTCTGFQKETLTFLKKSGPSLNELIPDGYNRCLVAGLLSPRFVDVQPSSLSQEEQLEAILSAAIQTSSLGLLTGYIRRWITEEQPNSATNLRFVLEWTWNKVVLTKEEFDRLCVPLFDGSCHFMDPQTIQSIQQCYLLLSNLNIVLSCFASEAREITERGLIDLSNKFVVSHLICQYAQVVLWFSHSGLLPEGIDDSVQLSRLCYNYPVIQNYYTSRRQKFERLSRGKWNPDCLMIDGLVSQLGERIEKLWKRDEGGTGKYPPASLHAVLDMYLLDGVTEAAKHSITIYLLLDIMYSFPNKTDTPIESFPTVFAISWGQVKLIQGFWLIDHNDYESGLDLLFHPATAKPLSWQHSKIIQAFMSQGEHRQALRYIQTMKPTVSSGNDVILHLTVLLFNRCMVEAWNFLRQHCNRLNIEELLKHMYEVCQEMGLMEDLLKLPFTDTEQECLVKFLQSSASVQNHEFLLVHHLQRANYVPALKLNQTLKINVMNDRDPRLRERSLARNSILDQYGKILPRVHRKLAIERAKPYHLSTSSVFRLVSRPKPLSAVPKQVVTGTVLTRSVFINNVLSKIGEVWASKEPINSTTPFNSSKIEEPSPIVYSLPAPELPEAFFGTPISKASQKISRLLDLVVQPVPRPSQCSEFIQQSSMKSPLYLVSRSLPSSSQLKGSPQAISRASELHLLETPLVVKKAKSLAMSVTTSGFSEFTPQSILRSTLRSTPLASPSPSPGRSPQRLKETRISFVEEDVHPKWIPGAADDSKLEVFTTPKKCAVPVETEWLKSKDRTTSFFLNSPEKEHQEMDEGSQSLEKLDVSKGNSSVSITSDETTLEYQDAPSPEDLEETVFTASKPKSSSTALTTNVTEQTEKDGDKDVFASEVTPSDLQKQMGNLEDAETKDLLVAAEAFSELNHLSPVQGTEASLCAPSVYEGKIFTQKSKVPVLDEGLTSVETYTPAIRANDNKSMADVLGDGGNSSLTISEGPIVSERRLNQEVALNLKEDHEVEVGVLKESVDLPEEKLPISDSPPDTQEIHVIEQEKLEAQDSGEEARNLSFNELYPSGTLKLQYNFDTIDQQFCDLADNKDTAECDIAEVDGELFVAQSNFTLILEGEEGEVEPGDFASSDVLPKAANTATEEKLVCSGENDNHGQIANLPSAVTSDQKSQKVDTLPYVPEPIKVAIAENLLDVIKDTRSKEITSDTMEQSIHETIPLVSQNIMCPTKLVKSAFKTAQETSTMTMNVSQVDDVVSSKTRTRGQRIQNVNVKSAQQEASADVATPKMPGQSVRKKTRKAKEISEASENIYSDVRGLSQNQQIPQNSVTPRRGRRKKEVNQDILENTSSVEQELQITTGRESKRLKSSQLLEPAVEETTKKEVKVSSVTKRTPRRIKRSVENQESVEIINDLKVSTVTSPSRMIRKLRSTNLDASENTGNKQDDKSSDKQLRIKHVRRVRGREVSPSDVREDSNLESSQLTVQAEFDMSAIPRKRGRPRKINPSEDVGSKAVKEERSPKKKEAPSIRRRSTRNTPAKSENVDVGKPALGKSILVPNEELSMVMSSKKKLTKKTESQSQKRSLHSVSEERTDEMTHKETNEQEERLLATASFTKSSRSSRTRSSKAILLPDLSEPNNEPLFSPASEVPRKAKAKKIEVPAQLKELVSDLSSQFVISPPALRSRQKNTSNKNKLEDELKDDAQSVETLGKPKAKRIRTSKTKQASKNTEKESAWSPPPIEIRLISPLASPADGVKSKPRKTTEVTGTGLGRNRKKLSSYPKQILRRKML
UniProt Q9BVK2: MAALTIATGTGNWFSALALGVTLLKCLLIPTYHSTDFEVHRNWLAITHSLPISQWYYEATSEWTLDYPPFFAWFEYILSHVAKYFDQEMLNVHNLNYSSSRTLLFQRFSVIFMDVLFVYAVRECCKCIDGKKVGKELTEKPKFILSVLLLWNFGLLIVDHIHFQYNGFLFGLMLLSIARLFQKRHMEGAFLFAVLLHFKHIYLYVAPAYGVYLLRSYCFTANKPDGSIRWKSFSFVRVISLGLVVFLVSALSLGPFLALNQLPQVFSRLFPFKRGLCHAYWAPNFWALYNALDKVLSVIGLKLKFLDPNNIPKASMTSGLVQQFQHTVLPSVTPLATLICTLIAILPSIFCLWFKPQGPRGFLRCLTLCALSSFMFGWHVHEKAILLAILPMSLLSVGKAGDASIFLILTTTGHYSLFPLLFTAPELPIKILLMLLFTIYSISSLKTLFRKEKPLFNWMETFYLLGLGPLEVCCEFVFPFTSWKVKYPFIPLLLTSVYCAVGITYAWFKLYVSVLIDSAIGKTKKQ
UniProt P09972: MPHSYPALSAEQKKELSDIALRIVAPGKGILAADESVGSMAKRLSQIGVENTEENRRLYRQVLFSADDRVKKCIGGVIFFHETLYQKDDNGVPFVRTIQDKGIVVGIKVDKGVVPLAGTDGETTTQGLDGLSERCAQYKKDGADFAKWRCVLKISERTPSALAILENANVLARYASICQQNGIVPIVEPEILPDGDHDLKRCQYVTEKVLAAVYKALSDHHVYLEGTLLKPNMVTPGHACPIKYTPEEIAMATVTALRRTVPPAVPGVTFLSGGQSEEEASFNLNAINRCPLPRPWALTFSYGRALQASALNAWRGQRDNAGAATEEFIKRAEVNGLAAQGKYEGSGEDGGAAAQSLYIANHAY
UniProt Q01432: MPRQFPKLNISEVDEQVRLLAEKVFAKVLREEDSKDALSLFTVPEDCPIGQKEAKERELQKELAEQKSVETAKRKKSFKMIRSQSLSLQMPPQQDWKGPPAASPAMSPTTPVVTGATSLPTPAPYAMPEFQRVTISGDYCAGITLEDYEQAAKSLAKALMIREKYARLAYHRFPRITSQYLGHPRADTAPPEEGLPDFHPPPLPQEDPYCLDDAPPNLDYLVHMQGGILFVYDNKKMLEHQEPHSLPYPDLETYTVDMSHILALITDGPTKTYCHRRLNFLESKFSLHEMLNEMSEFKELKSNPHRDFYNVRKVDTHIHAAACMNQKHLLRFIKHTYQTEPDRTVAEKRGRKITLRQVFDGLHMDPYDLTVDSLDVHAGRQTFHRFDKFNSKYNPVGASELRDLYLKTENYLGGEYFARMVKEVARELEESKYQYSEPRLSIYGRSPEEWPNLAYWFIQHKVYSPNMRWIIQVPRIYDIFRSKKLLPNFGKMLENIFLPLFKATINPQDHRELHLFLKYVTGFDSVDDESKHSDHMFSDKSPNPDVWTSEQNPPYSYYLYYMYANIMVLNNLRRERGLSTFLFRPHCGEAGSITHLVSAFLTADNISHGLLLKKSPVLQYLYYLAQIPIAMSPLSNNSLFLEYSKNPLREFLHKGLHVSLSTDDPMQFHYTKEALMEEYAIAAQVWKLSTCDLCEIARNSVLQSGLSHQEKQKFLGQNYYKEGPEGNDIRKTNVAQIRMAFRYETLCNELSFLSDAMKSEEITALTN
UniProt Q96Q83: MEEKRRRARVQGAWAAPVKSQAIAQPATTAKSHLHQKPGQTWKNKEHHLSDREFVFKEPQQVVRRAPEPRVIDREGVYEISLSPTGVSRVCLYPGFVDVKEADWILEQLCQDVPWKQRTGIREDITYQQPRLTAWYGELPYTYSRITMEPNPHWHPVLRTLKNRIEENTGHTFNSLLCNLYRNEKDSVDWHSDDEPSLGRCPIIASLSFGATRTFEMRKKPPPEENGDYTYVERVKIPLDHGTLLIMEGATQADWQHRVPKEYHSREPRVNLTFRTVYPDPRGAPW
UniProt Q9H6U8: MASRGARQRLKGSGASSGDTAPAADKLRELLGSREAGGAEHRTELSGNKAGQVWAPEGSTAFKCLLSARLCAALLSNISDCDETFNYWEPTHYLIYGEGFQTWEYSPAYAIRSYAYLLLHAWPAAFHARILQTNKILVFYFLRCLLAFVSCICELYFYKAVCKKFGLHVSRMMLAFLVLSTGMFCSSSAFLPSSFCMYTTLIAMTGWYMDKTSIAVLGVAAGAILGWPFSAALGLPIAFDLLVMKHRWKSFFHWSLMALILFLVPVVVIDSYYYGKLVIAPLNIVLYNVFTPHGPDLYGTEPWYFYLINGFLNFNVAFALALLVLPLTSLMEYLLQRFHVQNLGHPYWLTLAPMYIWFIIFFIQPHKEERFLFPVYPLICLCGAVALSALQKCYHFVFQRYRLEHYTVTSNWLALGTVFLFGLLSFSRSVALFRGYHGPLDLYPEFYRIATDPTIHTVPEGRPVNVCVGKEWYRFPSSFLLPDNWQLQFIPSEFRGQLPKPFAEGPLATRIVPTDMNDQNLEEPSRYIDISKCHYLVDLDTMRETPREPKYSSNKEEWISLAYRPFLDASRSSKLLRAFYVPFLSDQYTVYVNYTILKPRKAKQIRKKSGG
UniProt Q9UIJ7: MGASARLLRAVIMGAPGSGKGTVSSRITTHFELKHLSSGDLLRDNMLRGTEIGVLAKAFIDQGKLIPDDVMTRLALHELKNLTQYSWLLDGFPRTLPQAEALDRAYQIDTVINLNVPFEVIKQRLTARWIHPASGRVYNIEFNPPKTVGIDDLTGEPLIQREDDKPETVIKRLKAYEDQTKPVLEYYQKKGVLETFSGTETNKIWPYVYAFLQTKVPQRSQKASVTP
UniProt P00568: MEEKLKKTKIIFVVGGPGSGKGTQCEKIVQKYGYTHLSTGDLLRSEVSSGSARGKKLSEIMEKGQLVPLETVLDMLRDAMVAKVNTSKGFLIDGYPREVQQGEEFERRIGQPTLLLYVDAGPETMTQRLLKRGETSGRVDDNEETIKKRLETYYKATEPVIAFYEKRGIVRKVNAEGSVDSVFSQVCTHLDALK
UniProt O95831, whole entry, looked up: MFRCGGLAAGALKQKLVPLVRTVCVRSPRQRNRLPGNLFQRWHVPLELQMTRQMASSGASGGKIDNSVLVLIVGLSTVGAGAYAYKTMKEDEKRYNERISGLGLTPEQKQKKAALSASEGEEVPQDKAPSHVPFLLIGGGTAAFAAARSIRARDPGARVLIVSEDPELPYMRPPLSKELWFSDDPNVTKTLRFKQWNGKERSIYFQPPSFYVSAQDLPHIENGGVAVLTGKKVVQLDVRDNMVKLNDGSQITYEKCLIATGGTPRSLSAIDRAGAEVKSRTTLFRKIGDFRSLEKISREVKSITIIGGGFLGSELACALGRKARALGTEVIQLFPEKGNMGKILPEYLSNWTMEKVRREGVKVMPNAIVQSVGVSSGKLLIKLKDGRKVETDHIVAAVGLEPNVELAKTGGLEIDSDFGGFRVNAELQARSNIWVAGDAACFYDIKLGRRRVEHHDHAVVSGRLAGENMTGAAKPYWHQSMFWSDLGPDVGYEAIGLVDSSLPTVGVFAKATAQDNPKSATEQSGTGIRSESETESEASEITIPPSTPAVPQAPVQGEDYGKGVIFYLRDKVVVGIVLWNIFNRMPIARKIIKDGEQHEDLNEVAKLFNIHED

How the values were obtained:
Test in all cases: log2 fold change, soluble protein after heating vs DMSO (PISA); higher = thermal stabilisation; K562 cells, 10 uM, 30 min; active = over 0.2 and 3.5 SD of the protein, either way, in both replicates (recomputed)
[1] = compound: C1COCCN1CCN2C3=CC=CC=C3N=C2NC(=O)C4=CC(=CC=C4)[N+](=O)[O-] [IRAK-1-4 Inhibitor I]
Outline: (§1)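 Aliquots of K562 cells (2×10^6 cells/mL) treated with 10 μM compound for 30 min were heated for 3 min over 48°C-58°C. After pooling and extraction in PBS with 0.5% NP-40 at 4°C, soluble protein from a 21,000xg, 90 min spin was quantified by TMTpro 16plex LC-MS/MS with channel sums equalised. Thermal stability is expressed against control samples, from duplicates, as a log2 fold change.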

[2] = compound: C=CC(=O)N1CCC[C@@H](n2nc(-c3ccc(Oc4ccccc4)cc3)c3c(N)ncnc32)C1 [ibrutinib]
Outline: as §1

[3] = compound: CC(=O)c1cnc2ccc(-c3cc(Cl)c(O)c(Cl)c3)nc2c1N[C@H]1CC[C@H](CN(C)C)CC1
Outline: as §1

[4] = compound: CC(C)(C)Cn1c(N)nc2ccc(-c3[nH]c(C(C)(C)C)nc3-c3ccc(F)cc3)nc21 [ralimetinib]
Outline: as §1

[5] = compound: CC(C)(O)CC(=O)NCCn1ccc2ncnc(Nc3ccc(Oc4cccc(C(F)(F)F)c4)c(Cl)c3)c21
Outline: as §1

[6] = compound: CC(C)C1=C2N=C(C=C(N2N=C1)NCC3=CC=CC=C3)NCCCCCCN
Outline: as §1

[7] = compound: CC(C)C[C@@H](C=O)NC(=O)[C@H](CC(C)C)NC(=O)[C@H](CC(C)C)NC(=O)OCc1ccccc1
Outline: as §1

[8] = compound: CC(C)N(C[C@H]1O[C@@H](n2cnc3c(N)ncnc32)[C@H](O)[C@@H]1O)[C@H]1C[C@@H](CCc2nc3cc(C(C)(C)C)ccc3[nH]2)C1 [pinometostat]
Outline: as §1

[9] = compound: CC1=C(C(CC(=O)N1)C2=CC=C(C=C2)C(F)(F)F)C(=O)NC3=C(C=C4C(=C3)C=NN4)F
Outline: as §1

[10] = compound: CC1=C(C2=C(C=C1)C(=O)C3=CC=CC=C3N2CCCN)C
Outline: as §1

[11] = compound: CC1=C(C=C(C=C1)NC(=O)C2=CC(=CC=C2)C(C)(C)C#N)NC3=CC4=C(C=C3)N=CN(C4=O)C
Outline: as §1

[12] = compound: CC1=C(C=C(C=C1)NC(=O)C2=CC(=CC=C2)N(C)C)NC(=O)C3=CC=C(C=C3)O
Outline: as §1

[13] = compound: CC1=CC=C(C=C1)SC2=C3C=C(SC3=CN=C2)C(=O)N
Outline: as §1

[14] = compound: CC1=NC(=CC=C1)C2=C(N=C(N2)C(C)(C)C)C3=CC4=NC=CN=C4C=C3
Outline: as §1

[15] = compound: CCCCN(Cc1ccc(C(=O)NO)cc1)C(=O)Nc1ccccc1 [Nexturastat A]
Outline: as §1

[16] = compound: CCCS(=O)(=O)Nc1ccc(F)c(C(=O)c2c[nH]c3ncc(-c4ccc(Cl)cc4)cc23)c1F [vemurafenib]
Outline: as §1

[17] = compound: CCCS(=O)(=O)Nc1ccc(F)c(C(=O)c2c[nH]c3ncc(Cl)cc23)c1F
Outline: as §1

[18] = compound: CCCc1cc(C)[nH]c(=O)c1CNC(=O)c1cc(-c2ccnc(N3CCN(C)CC3)c2)cc2c1cnn2C(C)C
Outline: as §1

[19] = compound: CCN(CC)Cc1ccc2cc(COC(=O)Nc3ccc(C(=O)NO)cc3)ccc2c1 [givinostat]
Outline: as §1

[20] = compound: CCN(CCCOc1ccc2c(Nc3cc(CC(=O)Nc4cccc(F)c4)[nH]n3)ncnc2c1)CCOP(=O)(O)O [barasertib]
Outline: as §1

Measured: log2 fold change

AIMP1 isoform 2 (UniProt Q12904)
inactive: [1] -0.13 | [2] 0.033 | [3] 0.227 | [4] 0.313 | [5] 0 | [6] -0.234 | [7] 0.18 | [8] 0.535 | [9] 0.011 | [10] -0.006 | [11] 0.094 | [12] 0.032 | [13] 0 | [14] -0.082 | [15] 0.502 | [16] -0.033 | [17] 0.032 | [18] 0.137 | [19] 0.127 | [20] -0.036

AHCTF1 isoform 2 (UniProt Q8WYP5)
inactive: [1] -0.034 | [2] 0.054 | [3] -0.008 | [4] 0.002 | [5] 0.053 | [6] -0.089 | [7] 0.028 | [8] 0.061 | [9] -0.044 | [10] 0.062 | [11] -0.11 | [12] 0.027 | [14] -0.119 | [15] 0.167 | [16] 0.016 | [18] 0.03 | [19] 0.058 | [20] 0.025

AKT1 (UniProt P31749)
inactive: [1] -0.014 | [2] -0.244 | [3] 0.03 | [4] -0.023 | [5] 0.01 | [6] -0.141 | [7] 0.07 | [8] -0.051 | [10] -0.038 | [11] 0.118 | [12] -0.105 | [13] -0.035 | [14] 0.019 | [15] 0.145 | [16] -0.227 | [17] 0.008 | [18] 0.049 | [19] 0.133 | [20] -0.03

Pulled one by one from the entries so far (2):
AKT1 (UniProt P31749)
inactive: [1] -0.014 | [2] -0.244 | [3] 0.03 | [4] -0.023 | [5] 0.01 | [6] -0.141 | [7] 0.07 | [8] -0.051 | [10] -0.038 | [11] 0.118 | [12] -0.105 | [13] -0.035 | [14] 0.019 | [15] 0.145 | [16] -0.227 | [17] 0.008 | [18] 0.049 | [19] 0.133 | [20] -0.03

AHCTF1 isoform 2 (UniProt Q8WYP5)
inactive: [1] -0.034 | [2] 0.054 | [3] -0.008 | [4] 0.002 | [5] 0.053 | [6] -0.089 | [7] 0.028 | [8] 0.061 | [9] -0.044 | [10] 0.062 | [11] -0.11 | [12] 0.027 | [14] -0.119 | [15] 0.167 | [16] 0.016 | [18] 0.03 | [19] 0.058 | [20] 0.025

Further results:

AGO3 (UniProt Q9H9G7)
inactive: [1] -0.064 | [2] 0.052 | [3] -0.152 | [4] 0.024 | [5] 0.072 | [6] 0.094 | [7] 0.038 | [8] 0.014 | [9] -0.168 | [10] 0.197 | [11] 0.011 | [12] 0.01 | [13] -0.014 | [14] -0.008 | [15] 0.124 | [16] -0.061 | [17] 0.017 | [18] 0.226 | [19] -0.068 | [20] -0.033

ALG8 (UniProt Q9BVK2)
inactive: [1] 0.025 | [2] -0.012 | [3] 0.015 | [4] -0.018 | [5] -0.004 | [6] -0.111 | [7] -0.1 | [8] 0.009 | [9] -0.011 | [10] 0.04 | [11] 0.002 | [12] 0.023 | [13] 0.08 | [14] 0.097 | [15] -0.045 | [16] 0.009 | [17] 0.074 | [18] -0.065 | [19] -0.036 | [20] -0.001

ALDOC (UniProt P09972)
inactive: [1] 0.015 | [2] 0.039 | [3] 0.003 | [4] -0.055 | [5] -0.008 | [6] 0.087 | [7] 0.036 | [8] -0.023 | [9] 0.022 | [10] -0.001 | [11] 0.03 | [12] -0.021 | [13] 0.032 | [14] 0.007 | [15] 0.009 | [16] 0.02 | [17] 0.015 | [18] -0.109 | [19] -0.004 | [20] -0.023

AGO1 (UniProt Q9UL18)
inactive: [1] 0.02 | [2] 0.05 | [3] 0.019 | [4] -0.023 | [5] -0.001 | [6] -0.01 | [7] 0.07 | [8] 0.061 | [10] 0.076 | [11] -0.213 | [12] -0.021 | [13] -0.025 | [14] 0.193 | [15] 0.084 | [16] -0.023 | [17] -0.006 | [18] -0.111 | [19] 0.071 | [20] -0.064

AMPD3 isoform 4 (UniProt Q01432)
inactive: [1] 0.051 | [2] 0.026 | [3] 0.001 | [4] -0.079 | [5] -0.065 | [6] -0.074 | [7] -0.015 | [8] -0.044 | [9] 0.008 | [10] -0.011 | [11] -0.018 | [12] 0.015 | [13] 0.011 | [14] 0.038 | [15] -0.082 | [16] -0.018 | [17] -0.021 | [18] 0.016 | [19] -0.082 | [20] 0.01

ALDH16A1 (UniProt Q8IZ83)
inactive: [1] 0.018 | [2] 0.002 | [3] -0.001 | [4] -0.002 | [5] -0.02 | [6] 0.012 | [7] -0.027 | [8] -0.028 | [9] 0.01 | [10] 0.01 | [11] -0.016 | [12] -0.001 | [13] 0.009 | [14] -0.006 | [15] -0.037 | [16] 0.023 | [17] -0.004 | [18] -0.032 | [19] -0.028 | [20] 0

ALKBH3 (UniProt Q96Q83)
inactive: [1] 0.122 | [2] 0.065 | [3] -0.018 | [4] -0.053 | [5] 0.085 | [6] 0.029 | [7] 0.048 | [8] -0.008 | [9] 0.027 | [10] 0.016 | [11] -0.016 | [12] 0.013 | [13] 0.013 | [14] -0.031 | [15] 0.024 | [16] 0.106 | [17] -0.044 | [18] 0.043 | [19] -0.016 | [20] 0.009

AKT1S1 isoform 3 (UniProt Q96B36)
inactive: [1] 0.054 | [2] -0.011 | [3] 0.129 | [4] -0.012 | [5] 0.048 | [6] 0.028 | [7] -0.006 | [8] 0.001 | [9] -0.006 | [10] 0.002 | [11] -0.029 | [12] 0.002 | [13] -0.037 | [14] -0.038 | [15] -0.016 | [16] -0.075 | [17] -0.04 | [18] -0.049 | [19] 0 | [20] 0.043

ALG9 isoform 3 (UniProt Q9H6U8)
inactive: [1] 0.035 | [2] 0.019 | [3] -0.038 | [4] -0.055 | [5] 0.005 | [6] -0.053 | [7] 0.002 | [8] 0.023 | [9] -0.007 | [10] 0.024 | [11] -0.044 | [12] 0.009 | [13] 0.004 | [14] -0.03 | [15] 0.006 | [16] -0.028 | [17] -0.04 | [18] -0.009 | [19] -0.005 | [20] -0.008

AGL (UniProt P35573)
inactive: [1] -0.168 | [2] -0.008 | [3] -0.054 | [4] 0.071 | [5] 0.027 | [6] -0.106 | [7] 0.091 | [8] 0.182 | [9] -0.005 | [10] 0.067 | [11] 0.13 | [12] -0.012 | [13] -0.058 | [14] -0.03 | [15] 0.165 | [16] -0.016 | [17] 0.011 | [18] 0.081 | [19] 0.065 | [20] -0.019

AK3 (UniProt Q9UIJ7)
inactive: [1] 0.027 | [2] -0.003 | [3] -0.009 | [4] -0.07 | [5] -0.009 | [6] 0.012 | [7] -0.019 | [8] -0.036 | [9] -0.011 | [10] 0.039 | [11] 0 | [12] 0 | [13] 0.013 | [14] 0.005 | [15] -0.114 | [16] -0.021 | [17] -0.001 | [18] -0.026 | [19] 0.001 | [20] 0.022

AK1 (UniProt P00568)
inactive: [1] 0.028 | [2] 0.018 | [3] -0.023 | [4] 0.021 | [5] -0.067 | [6] -0.002 | [7] -0.032 | [8] -0.017 | [9] -0.007 | [10] 0.059 | [11] 0.039 | [12] 0.009 | [13] -0.013 | [14] 0.013 | [15] -0.033 | [16] 0.044 | [17] 0.05 | [18] -0.066 | [19] -0.029 | [20] 0.013

AIFM1 (UniProt O95831)
inactive: [1] 0.024 | [2] 0.006 | [3] -0.025 | [4] -0.018 | [5] -0.008 | [6] 0.028 | [7] -0.023 | [8] -0.04 | [9] -0.004 | [10] 0.016 | [11] -0.013 | [12] -0.009 | [13] 0 | [14] 0.005 | [15] -0.056 | [16] 0 | [17] -0.008 | [18] 0.02 | [19] -0.022 | [20] -0.008
